The chains behind the UniProt entries cited, without tags or fusion partners. Where a name states a change or a piece, a line headed by the entry shows the natural chain unless it says otherwise.
UniProt P30186: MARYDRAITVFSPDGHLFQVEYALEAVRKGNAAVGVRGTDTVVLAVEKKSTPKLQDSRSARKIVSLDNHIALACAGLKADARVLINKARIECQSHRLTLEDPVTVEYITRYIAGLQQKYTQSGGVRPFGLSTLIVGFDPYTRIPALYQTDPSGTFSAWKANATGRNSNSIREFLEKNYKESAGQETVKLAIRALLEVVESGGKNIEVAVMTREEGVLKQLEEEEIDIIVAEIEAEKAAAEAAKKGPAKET
UniProt Q01474: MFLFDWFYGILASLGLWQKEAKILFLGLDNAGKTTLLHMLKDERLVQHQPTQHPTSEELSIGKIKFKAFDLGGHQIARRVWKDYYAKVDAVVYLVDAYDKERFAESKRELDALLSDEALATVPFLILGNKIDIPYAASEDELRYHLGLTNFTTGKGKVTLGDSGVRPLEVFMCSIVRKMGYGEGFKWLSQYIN
UniProt Q07100: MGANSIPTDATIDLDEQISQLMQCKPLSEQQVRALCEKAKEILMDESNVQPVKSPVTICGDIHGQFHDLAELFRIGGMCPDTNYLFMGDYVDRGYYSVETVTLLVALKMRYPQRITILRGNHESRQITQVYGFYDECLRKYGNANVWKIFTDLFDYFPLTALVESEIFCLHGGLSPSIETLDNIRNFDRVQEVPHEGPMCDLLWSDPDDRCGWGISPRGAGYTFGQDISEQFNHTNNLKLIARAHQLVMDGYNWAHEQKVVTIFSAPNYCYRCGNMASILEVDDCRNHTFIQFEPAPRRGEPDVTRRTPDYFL
UniProt Q7DLR9: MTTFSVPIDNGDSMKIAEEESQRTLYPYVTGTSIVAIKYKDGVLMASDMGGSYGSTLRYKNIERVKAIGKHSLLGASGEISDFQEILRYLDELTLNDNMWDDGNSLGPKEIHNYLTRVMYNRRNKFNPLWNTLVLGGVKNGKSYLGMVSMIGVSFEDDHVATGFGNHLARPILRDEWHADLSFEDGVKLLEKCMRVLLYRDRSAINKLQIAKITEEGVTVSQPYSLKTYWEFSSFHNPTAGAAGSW
UniProt Q42525: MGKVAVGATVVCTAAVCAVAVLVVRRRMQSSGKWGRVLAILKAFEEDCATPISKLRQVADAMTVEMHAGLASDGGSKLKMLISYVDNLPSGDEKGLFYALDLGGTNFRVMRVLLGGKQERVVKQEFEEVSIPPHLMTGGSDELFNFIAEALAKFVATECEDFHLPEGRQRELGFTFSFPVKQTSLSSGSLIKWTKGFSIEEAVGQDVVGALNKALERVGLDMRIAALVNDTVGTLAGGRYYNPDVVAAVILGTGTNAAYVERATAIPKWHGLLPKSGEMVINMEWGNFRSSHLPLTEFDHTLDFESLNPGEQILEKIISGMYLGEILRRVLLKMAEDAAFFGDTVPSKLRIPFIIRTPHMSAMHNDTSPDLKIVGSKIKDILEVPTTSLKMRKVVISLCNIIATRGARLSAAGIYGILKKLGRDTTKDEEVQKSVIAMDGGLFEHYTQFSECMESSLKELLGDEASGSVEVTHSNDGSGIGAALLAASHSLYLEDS

In PMC10418956:

B1: PP2A-A3, the scaffolding subunit of the Protein Phosphatase 2A (PP2A) (protein, UniProt Q38951 1-587)
chain: MSMVDEPLYPIAVLIDELKNDDIQRRLNSIKRLSIIARALGEERTRKELIPFLSENNDDDDEVLLAMAEELGGFILYVGGVEYAYVLLPPLETLSTVEETCVREKAVDSLCRIGAQMRESDLVEHFTPLAKRLSAGEWFTARVSACGIFHIAYPSAPDVLKTELRSIYGQLCQDDMPMVRRAAATNLGKFAATIESAHLKTDIMSMFEDLTQDDQDSVRLLAVEGCAALGKLLEPQDCVAHILPVIVNFSQDKSWRVRYMVANQLYELCEAVGPEPTRTDLVPAYARLLCDNEAEVRIAAAGKVTKFCRILNPELAIQHILPCVKELSSDSSQHVRSALASVIMGMAPVLGKDATIEHLLPIFLSLLKDEFPDVRLNIISKLDQVNQVIGIDLLSQSLLPAIVELAEDRHWRVRLAIIEYIPLLASQLGVGFFDEKLGALCMQWLQDKVHSIREAAANNLKRLAEEFGPEWAMQHIVPQVLEMINNPHYLYRMTILRAVSLLAPVMGSEITCSKLLPAVITASKDRVPNIKFNVAKMMQSLIPIVDQAVVENMIRPCLVELSEDPDVDVRYFANQALQSIDNVMMSS

Legend:
Assay in all cases: affinity purification with mass spectrometry; tandem affinity purification (IgG Sepharose, PreScission protease, Ni Sepharose) of TAP-tagged bait expressed under the 2x35S promoter in Col-0, from protein extracts of fully expanded rosette leaves at the bolting stage, long day conditions; LC-MS/MS; hits enriched over the GFP-TAP control (fold change >= 1.5, p <= 0.05)
[1] = target: T1, ATG5-TAP (Arabidopsis thaliana) (UniProt Q9FFI2)
T1 sequence: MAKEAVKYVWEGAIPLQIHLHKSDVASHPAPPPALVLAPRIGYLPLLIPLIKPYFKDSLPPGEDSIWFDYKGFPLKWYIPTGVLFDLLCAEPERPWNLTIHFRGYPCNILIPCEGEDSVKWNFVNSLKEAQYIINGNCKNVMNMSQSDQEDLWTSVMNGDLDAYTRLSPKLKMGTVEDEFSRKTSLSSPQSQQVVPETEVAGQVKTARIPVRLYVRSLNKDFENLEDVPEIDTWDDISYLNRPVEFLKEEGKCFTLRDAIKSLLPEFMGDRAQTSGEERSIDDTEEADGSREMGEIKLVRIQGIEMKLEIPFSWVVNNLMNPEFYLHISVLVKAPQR

[2] = target: T2, ATG5^K128R-TAP (Arabidopsis thaliana) (UniProt Q9FFI2)
T2 sequence: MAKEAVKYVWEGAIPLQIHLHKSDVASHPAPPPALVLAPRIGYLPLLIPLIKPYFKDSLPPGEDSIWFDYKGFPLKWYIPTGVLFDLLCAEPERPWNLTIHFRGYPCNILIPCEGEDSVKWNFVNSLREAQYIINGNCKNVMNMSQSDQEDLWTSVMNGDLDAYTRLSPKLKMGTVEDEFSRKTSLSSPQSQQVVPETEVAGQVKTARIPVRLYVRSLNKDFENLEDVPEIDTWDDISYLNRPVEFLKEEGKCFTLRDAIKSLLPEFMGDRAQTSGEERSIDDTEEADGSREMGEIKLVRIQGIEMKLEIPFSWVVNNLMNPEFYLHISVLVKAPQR

[3] = target: T1, ATG5-TAP (Arabidopsis thaliana); remark: listed apart in the source
[4] = target: T2, ATG5^K128R-TAP (Arabidopsis thaliana); remark: listed apart in the source

Molecule | binding [1] | binding [2] | binding [3] | binding [4]
20S proteasome subunit alpha D1 (from UniProt P30186 1-250) | binds | binds | – | –
SAR1B (from UniProt Q01474 1-193) | binds | binds | – | –
SAR1C | no binding | binds | – | –
catalytic subunit of PP2A (PP2A-3) (from UniProt Q07100 1-313) | – | binds | – | –
20S proteasome subunit beta G1 (from UniProt Q7DLR9) | binds | binds | – | –
hexokinase 1 (from UniProt Q42525 1-496) | binds | binds | – | –
ATG8 | no binding | no binding | – | –
B1 | – | – | binds | binds

Read-outs that look alike come from different tables or passages of the source. These are yes or no findings as the source states them, for the method shown. In cells and extracts the contact can be indirect. A yes stands for co-enrichment or nearness to the bait. Other partners may have been found. For part of these data: A no says only that the protein was not detected with the bait.
